According to article doi:10.1101/2025.10.23.684158:
Results are given in words; binding and its absence hold for the method and conditions named. In cells and extracts the contact can be indirect. Some entries that bind do so weakly or less than the wild type. For some of these results: Where a sequence is shown, tags or fusion partners need not be part of it.

By UniProt entry, the sequences of proteins in these tests, tags left out.
UniProt Q8CIG8: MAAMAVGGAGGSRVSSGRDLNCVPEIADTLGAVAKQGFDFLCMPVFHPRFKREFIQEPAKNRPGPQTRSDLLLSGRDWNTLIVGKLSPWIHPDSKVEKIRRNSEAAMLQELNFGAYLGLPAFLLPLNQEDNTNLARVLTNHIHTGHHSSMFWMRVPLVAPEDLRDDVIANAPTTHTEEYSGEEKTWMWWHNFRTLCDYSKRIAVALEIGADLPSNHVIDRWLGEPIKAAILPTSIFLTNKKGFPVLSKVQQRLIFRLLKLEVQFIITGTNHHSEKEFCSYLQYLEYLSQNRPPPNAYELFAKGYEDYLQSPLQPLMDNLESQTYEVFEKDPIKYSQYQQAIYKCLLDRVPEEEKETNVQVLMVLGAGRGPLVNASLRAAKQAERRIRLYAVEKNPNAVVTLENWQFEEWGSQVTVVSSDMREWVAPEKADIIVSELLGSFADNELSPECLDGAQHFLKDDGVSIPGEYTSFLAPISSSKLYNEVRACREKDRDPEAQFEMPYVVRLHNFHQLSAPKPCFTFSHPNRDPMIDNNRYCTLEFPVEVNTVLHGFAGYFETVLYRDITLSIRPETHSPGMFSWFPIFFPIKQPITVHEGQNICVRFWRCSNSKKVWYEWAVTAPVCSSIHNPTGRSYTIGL
UniProt P09528: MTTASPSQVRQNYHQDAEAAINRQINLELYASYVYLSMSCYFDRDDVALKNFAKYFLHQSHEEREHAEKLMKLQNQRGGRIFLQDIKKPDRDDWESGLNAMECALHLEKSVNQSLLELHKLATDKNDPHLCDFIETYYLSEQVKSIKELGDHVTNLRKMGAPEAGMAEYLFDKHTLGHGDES

How the values were obtained:
Assay in all cases: co-IP
[1] = target: T1, nuclear receptor coactivator 4 (NCOA4) (mouse (endogenous in murine peritoneal macrophages)) (UniProt Q5U4H9)
T1 sequence: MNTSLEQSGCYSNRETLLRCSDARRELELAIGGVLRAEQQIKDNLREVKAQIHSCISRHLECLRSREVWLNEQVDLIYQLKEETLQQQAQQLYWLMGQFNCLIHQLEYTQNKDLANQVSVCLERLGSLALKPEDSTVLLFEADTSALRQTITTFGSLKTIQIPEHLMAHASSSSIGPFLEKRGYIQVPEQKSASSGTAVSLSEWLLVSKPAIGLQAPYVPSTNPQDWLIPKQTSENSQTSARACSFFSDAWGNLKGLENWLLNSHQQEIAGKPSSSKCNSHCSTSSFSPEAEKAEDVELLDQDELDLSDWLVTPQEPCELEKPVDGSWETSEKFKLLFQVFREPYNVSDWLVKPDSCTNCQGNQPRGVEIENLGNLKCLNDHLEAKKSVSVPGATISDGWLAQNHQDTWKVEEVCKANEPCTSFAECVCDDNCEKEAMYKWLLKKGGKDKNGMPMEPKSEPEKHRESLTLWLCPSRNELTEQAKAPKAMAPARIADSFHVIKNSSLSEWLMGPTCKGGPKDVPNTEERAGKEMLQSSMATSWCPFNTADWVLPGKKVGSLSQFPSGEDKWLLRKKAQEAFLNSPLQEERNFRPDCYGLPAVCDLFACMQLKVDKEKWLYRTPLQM

[2] = target: T2, NCOA4-HA (pcDNA 3.1-NCOA4-HA OE) (mouse) (UniProt Q5U4H9)
T2 sequence: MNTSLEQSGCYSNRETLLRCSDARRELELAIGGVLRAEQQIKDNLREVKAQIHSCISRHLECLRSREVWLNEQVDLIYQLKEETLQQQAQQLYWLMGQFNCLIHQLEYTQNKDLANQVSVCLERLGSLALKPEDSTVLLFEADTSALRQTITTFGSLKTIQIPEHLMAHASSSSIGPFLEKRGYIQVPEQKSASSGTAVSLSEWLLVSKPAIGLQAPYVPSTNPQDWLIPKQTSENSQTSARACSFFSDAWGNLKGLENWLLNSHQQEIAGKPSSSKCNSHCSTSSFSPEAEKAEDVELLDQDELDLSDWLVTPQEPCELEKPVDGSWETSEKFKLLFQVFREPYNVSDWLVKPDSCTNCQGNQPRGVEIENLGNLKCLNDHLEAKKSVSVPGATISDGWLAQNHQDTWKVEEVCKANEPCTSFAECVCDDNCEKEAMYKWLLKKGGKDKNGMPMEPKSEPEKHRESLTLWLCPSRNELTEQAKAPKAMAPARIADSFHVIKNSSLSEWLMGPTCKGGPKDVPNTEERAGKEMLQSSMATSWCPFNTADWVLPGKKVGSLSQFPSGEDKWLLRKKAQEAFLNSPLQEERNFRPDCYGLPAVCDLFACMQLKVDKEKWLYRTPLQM

[3] = target: protein arginine methyltransferase 5 (PRMT5) (mouse (endogenous in murine macrophages)) (UniProt Q8CIG8)

ferritin heavy chain (from UniProt P09528 1-182)
binding [1]: binds
binding [2]: binds

B1: nuclear receptor coactivator 4 (NCOA4) (protein, UniProt Q5U4H9 1-625)
chain: MNTSLEQSGCYSNRETLLRCSDARRELELAIGGVLRAEQQIKDNLREVKAQIHSCISRHLECLRSREVWLNEQVDLIYQLKEETLQQQAQQLYWLMGQFNCLIHQLEYTQNKDLANQVSVCLERLGSLALKPEDSTVLLFEADTSALRQTITTFGSLKTIQIPEHLMAHASSSSIGPFLEKRGYIQVPEQKSASSGTAVSLSEWLLVSKPAIGLQAPYVPSTNPQDWLIPKQTSENSQTSARACSFFSDAWGNLKGLENWLLNSHQQEIAGKPSSSKCNSHCSTSSFSPEAEKAEDVELLDQDELDLSDWLVTPQEPCELEKPVDGSWETSEKFKLLFQVFREPYNVSDWLVKPDSCTNCQGNQPRGVEIENLGNLKCLNDHLEAKKSVSVPGATISDGWLAQNHQDTWKVEEVCKANEPCTSFAECVCDDNCEKEAMYKWLLKKGGKDKNGMPMEPKSEPEKHRESLTLWLCPSRNELTEQAKAPKAMAPARIADSFHVIKNSSLSEWLMGPTCKGGPKDVPNTEERAGKEMLQSSMATSWCPFNTADWVLPGKKVGSLSQFPSGEDKWLLRKKAQEAFLNSPLQEERNFRPDCYGLPAVCDLFACMQLKVDKEKWLYRTPLQM
binding [3]: binds

B2: vitamin D3 receptor (receptor, UniProt P48281 1-422)
chain: MEAMAASTSLPDPGDFDRNVPRICGVCGDRATGFHFNAMTCEGCKGFFRRSMKRKALFTCPFNGDCRITKDNRRHCQACRLKRCVDIGMMKEFILTDEEVQRKREMIMKRKEEEALKDSLRPKLSEEQQHIIAILLDAHHKTYDPTYADFRDFRPPIRADVSTGSYSPRPTLSFSGDSSSNSDLYTPSLDMMEPASFSTMDLNEEGSDDPSVTLDLSPLSMLPHLADLVSYSIQKVIGFAKMIPGFRDLTSDDQIVLLKSSAIEVIMLRSNQSFTLDDMSWDCGSQDYKYDITDVSRAGHTLELIEPLIKFQVGLKKLNLHEEEHVLLMAICIVSPDRPGVQDAKLVEAIQDRLSNTLQTYIRCRHPPPGSHQLYAKMIQKLADLRSLNEEHSKQYRSLSFQPENSMKLTPLVLEVFGNEIS
binding [1]: binds
